Experimental data published in patent publication US5871937A, “Acute phase protein modulating endotoxic activity of lipopolysaccharides, assay methods and polypeptides” (priority 1997, dated 1999).

Test: CsCl centrifugation density of LPS complexes
Type: binding
Conditions: for Density reached, shift from 1.33 g/cc: combining LPS, HDL and the protein

Row | Molecule | Density reached, shift from 1.33 g/cc | Density of LBP-LPS complex (purified glycoprotein and LPS admixed in vitro in normal serum)
1 | BPI: bactericidal/permeability increasing protein, a product of neutrophils (protein, UniProt P17213 32-487, looked up) Bactericidal …: VNPGVVVRISQKGLDYASQQGTAALQKELKRIKIPDYSDSFKIKHLGKGHYSFYSMDIREFQLPSSQISMVPNVGLKFSISNANIKISGKWKAQKRFLKMSGNFDLSIEGMSISADLKLGSNPTSGKPTITCSSCSSHINSVHVHISKSKVGWLIQLFHKKIESALRNKMNSQVCEKVTNSVSSELQPYFQTLPVMTKIDSVAGINYGLVAPPATTAETLDVQMKGEFYSENHHNPPPFAPPVMEFPAAHDRMVYLGLSDYFFNTAGLVYQEAGVLKMTLRDDMIPKESKFRLTTKFFGTFLPEVAKKFPNMKIQIHVSASTPPHLSVQPTGLTFYPAVDVQAFAVLPNSSLASLFLIGMHTTGSMEVSAESNRLVGELKLDRLLLELKHSNIGPFPVELLQDIMNYIVPILVLPRVNEKLQKGFPLPTPARVQLYNVVLQPHQNFLLFGADVVYK | 1.29 g/cc | –
2 | LBP: acute phase glycoprotein of about 60 kD that binds LPS and retards its binding to HDL (protein, UniProt P17454 27-482, looked up) Lipopolysaccharide-binding …: TNPGLITRITDKGLEYAAREGLLALQRKLLEVTLPDSDGDFRIKHFGRAQYKFYSLKIPRFELLRGTLRPLPGQGLSLDISDAYIHVRGSWKVRKAFLRLKNSFDLYVKGLTISVHLVLGSESSGRPTVTTSSCSSDIQNVELDIEGDLEELLNLLQSQIDARLREVLESKICRQIEEAVTAHLQPYLQTLPVTTQIDSFAGIDYSLMEAPRATAGMLDVMFKGEIFPLDHRSPVDFLAPAMNLPEAHSRMVYFSISDYVFNTASLAYHKSGYWNFSITDAMVPADLNIRRTTKSFRPFVPLLANLYPNMNLELQGTVNSEQLVNLSTENLLEEPEMDIEALVVLPSSAREPVFRLGVATNVSATLTLNTRKITGFLKPGRLQVELKESKVGGFNVELLEALLNYYILNNLYPKVNEKLAHRFPLPLLRHIQLYDLLLQTHENFLLVGANIQYRRV | less than 1.2 g/cc | 1.3 g/cc
